Results: US20070134261A1, “Effectors of innate immunity” (priority 2001, published 2007)
Part of at least one peptide drawing is inferred or uncertain, most often the ends. No end group written: not given here.

Tests used:
[1] = system: RAW 264.7 mouse macrophage cells; format: cell-based; settings: Peptide 20 μg/ml; 100 ng/ml E. coli 0111:B4 LPS, 6 h
[2] = system: A549 human epithelial cells; experiment: Induction of chemokines (IL-8, MCP-1) in A549 cells (ELISA); format: cell-based; settings: peptide 10 ug/ml, 24 hr
Description: The murine macrophage cell line RAW 264.7, THP-1 cells (human monocytes), a human epithelial cell line (A549), human bronchial epithelial cells (16HBEo14), and whole human blood were used. HBE cells were grown in MEM with Earle's. THP-1 cells were grown and maintained in RPMI 1640 medium. The RAW and A549 cell lines were maintained in DMEM supplemented with 10% fetal calf serum. […] DMEM was aspirated from cells grown overnight and replaced with fresh medium. After incubation of the cells with peptide, the release of chemokines into the culture supernatant was determined by ELISA (R&D Systems, Minneapolis, Minn.).

[3] = format: cell-based; settings: Staphylococcus aureus, overnight, 96-well plate
A549 epithelial cells = experiment: Human Operon arrays (PRHU04-S1) of A549 cells treated with peptide alone (Tables 31-37, 53); settings: peptide 50 μg/ml, 4 h
S. aureus = experiment: Murine S. aureus infection model (CD-1 mice); format: in vivo, mouse; settings: peptide 200 μg IP, 3 days; No Peptide 7.61 ± 1.7 × 10^3
Description: BALB/c mice were given 1×10^5 Salmonella and cationic peptide (200 μg) by intraperitoneal injection. The mice were monitored for 24 hours at which point they were euthanized, the spleen removed, homogenized and resuspended in PBS and plated on Luria Broth agar plates with Kanamycin (50 μg/ml). The plates were incubated overnight at 37° C. and counted for viable bacteria (Table 49 and 50). CD-1 mice were given 1×10^8 S. aureus in 5% porcine mucin and cationic peptide (200 μg) by intraperitoneal injection (Table 51). The mice were monitored for 3 days at which point they were euthanized, blood removed and plated for viable counts. CD-1 male mice were given 5.8×10^6 CFU EHEC bacteria and cationic peptide (200 μg) by intraperitoneal (IP) injection and monitored for 3 days (Table 52). […] Many of the cationic peptides were shown not to be directly antimicrobial as tested by the Minimum Inhibitory Concentration (MIC) assay (Table 54).

In the case of TTLGPVKRDSIPGE [SEQ ID NO: 14], the “Inhibition of TNF-α” value [1] is reported as 50.8 ± 1.67%, the IL-8 [2] is reported as 0.148 ng/mL and the “MIC, S. aureus” value [3] is reported as “>”.
With RPRYPWWPWWPYRPRK [SEQ ID NO: 19] the “Inhibition of TNF-α” value [1] was 69.9 ± 0.09%, the IL-8 [2] was 0.161 ng/mL and the “ID#:ctrl intensity ratio, AB010962 matrix metalloproteinase” value (A549 epithelial cells) was 4.7. For the same sequence, the “ID#:ctrl intensity ratio, AB033063 unknown” value (A549 epithelial cells) was 15.2, the “ID#:ctrl intensity ratio, AB033080 cell cycle progression 8 protein” value (A549 epithelial cells) was 3.1 and the “ID#:ctrl intensity ratio, AB037786 unknown” value (A549 epithelial cells) was 4.7. The “ID#:ctrl intensity ratio, AC007059 unknown” value (A549 epithelial cells) was 3.0, the “ID#:ctrl intensity ratio, AF023466 putative glycine-N-acyltransferase” value (A549 epithelial cells) was 3.1 and the “ID#:ctrl intensity ratio, AF030555 fatty-acid-Coenzyme A ligase” value (A549 epithelial cells) was 8.7. For the same sequence, the “ID#:ctrl intensity ratio, AF050078 growth arrest specific 11” value (A549 epithelial cells) was 2.1, the “ID#:ctrl intensity ratio, AF052116 unknown” value (A549 epithelial cells) was 15.5 and the “ID#:ctrl intensity ratio, AF064493 LIM binding domain 2” value (A549 epithelial cells) was 5.9. For the same sequence, the “ID#:ctrl intensity ratio, AF144412 lens epithelial cell protein” value (A549 epithelial cells) was 23.9, the “ID#:ctrl intensity ratio, AF181286 unknown” value (A549 epithelial cells) was 8.8 and the “ID#:ctrl intensity ratio, AJ272208 IL-1R accessory protein-like 2” value (A549 epithelial cells) was 8.8. The “ID#:ctrl intensity ratio, AJ272265 secreted phosphoprotein” value (A549 epithelial cells) was 7.6, the “ID#:ctrl intensity ratio, AJ275355 unknown” value (A549 epithelial cells) was 4.6 and the “ID#:ctrl intensity ratio, AK001024 guanine nucleotide-binding protein” value (A549 epithelial cells) was 4.6. The “ID#:ctrl intensity ratio, AK001244 unknown” value (A549 epithelial cells) was 3.2, the “ID#:ctrl intensity ratio, AK001856 unknown” value (A549 epithelial cells) was 3.8 and the “ID#:ctrl intensity ratio, AL022723 MHC, class I, F” value (A549 epithelial cells) was 3.7. For the same sequence, the “ID#:ctrl intensity ratio, AL049423 unknown” value (A549 epithelial cells) was 2.4, the “ID#:ctrl intensity ratio, AL050125 unknown” value (A549 epithelial cells) was 8.6 and the “ID#:ctrl intensity ratio, AL050201 unknown” value (A549 epithelial cells) was 2.2. The “ID#:ctrl intensity ratio, AL080107 unknown” value (A549 epithelial cells) was 17.8, the “ID#:ctrl intensity ratio, AL096729 unknown” value (A549 epithelial cells) was 4.7 and the “ID#:ctrl intensity ratio, AL109792 unknown” value (A549 epithelial cells) was 4.0. The “ID#:ctrl intensity ratio, AL117457 cofilin 2” value (A549 epithelial cells) was 3.0, the “ID#:ctrl intensity ratio, AL117567 DKFZP566O084 protein” value (A549 epithelial cells) was 5.8 and the “ID#:ctrl intensity ratio, AL133602 unknown” value (A549 epithelial cells) was 3.1. For the same sequence, the “ID#:ctrl intensity ratio, AL137362 unknown” value (A549 epithelial cells) was 4.2, the “ID#:ctrl intensity ratio, AL137489 unknown” value (A549 epithelial cells) was 3.3 and the “ID#:ctrl intensity ratio, D38449 putative G protein coupled receptor” value (A549 epithelial cells) was 3.5. The “ID#:ctrl intensity ratio, J00210 interferon alpha 13” value (A549 epithelial cells) was 7.2, the “ID#:ctrl intensity ratio, J03068 N-acylaminoacyl-peptide hydrolase” value (A549 epithelial cells) was 8.3 and the “ID#:ctrl intensity ratio, L13720 growth arrest-specific 6” value (A549 epithelial cells) was 2.4. The “ID#:ctrl intensity ratio, L22569 cathepsin B” value (A549 epithelial cells) was 2.9, the “ID#:ctrl intensity ratio, L40933 phosphoglucomutase 5” value (A549 epithelial cells) was 5.6 and the “ID#:ctrl intensity ratio, M27190 regenerating islet-derived 1 alpha” value (A549 epithelial cells) was 5.3. The “ID#:ctrl intensity ratio, M33906 MHC class II, DQ alpha 1” value (A549 epithelial cells) was 7.6, the “ID#:ctrl intensity ratio, M37238 phospholipase C, gamma 2” value (A549 epithelial cells) was 2.9 and the “ID#:ctrl intensity ratio, M81933 cell division cycle 25A” value (A549 epithelial cells) was 8.8. For the same sequence, the “ID#:ctrl intensity ratio, NM_001756 corticosteroid binding globulin” value (A549 epithelial cells) was 4.1, the “ID#:ctrl intensity ratio, NM_006963 zinc finger protein” value (A549 epithelial cells) was 12.8 and the “ID#:ctrl intensity ratio, NM_014099 PRO1768 protein” value (A549 epithelial cells) was 12.3. The “ID#:ctrl intensity ratio, S70348 Integrin beta 3” value (A549 epithelial cells) was 2.6, the “ID#:ctrl intensity ratio, U27655 regulator of G-protein signaling” value (A549 epithelial cells) was 5.0 and the “ID#:ctrl intensity ratio, U60179 growth hormone receptor” value (A549 epithelial cells) was 2.9. The “ID#:ctrl intensity ratio, U80770 unknown” value (A549 epithelial cells) was 4.1, the “ID#:ctrl intensity ratio, U86529 glutathione S-transferase zeta 1” value (A549 epithelial cells) was 3.2 and the “ID#:ctrl intensity ratio, U92981 unknown” value (A549 epithelial cells) was 4.3. For the same sequence, the “ID#:ctrl intensity ratio, X05323 unknown” value (A549 epithelial cells) was 2.1, the “ID#:ctrl intensity ratio, X54131 protein tyrosine phosphatase, receptor type,” value (A549 epithelial cells) was 6.4 and the “ID#:ctrl intensity ratio, X66403 cholinergic receptor” value (A549 epithelial cells) was 4.4. The “ID#:ctrl intensity ratio, X67734 contactin 2” value (A549 epithelial cells) was 4.3, the “ID#:ctrl intensity ratio, X68879 empty spiracles homolog 1” value (A549 epithelial cells) was 4.3 and the “ID#:ctrl intensity ratio, X73113 myosin-binding protein C” value (A549 epithelial cells) was 4.7. For the same sequence, the “ID#:ctrl intensity ratio, X84003 TATA box binding protein” value (A549 epithelial cells) was 31.8, the “ID#:ctrl intensity ratio, AL031121 unknown” value (A549 epithelial cells; Formula C peptides) was 5.3 and the “ID#:ctrl intensity ratio, NM_012450 sulfate transport 1” value (A549 epithelial cells; Formula C peptides) was 3.3. For the same sequence, the “ID#:ctrl intensity ratio, U21931 fructose-bisphosphatase 1” value (A549 epithelial cells; Formula C peptides) was 4.6.
For RKMVKVDVRGIMIRKDRR [SEQ ID NO: 29], the “Inhibition of TNF-α” value [1] was 58.9 ± 0.005%, the IL-8 [2] was 0.188 ng/mL and the “MIC, S. aureus” value [3] was “>”.
For KRTAIKKVSRRGMSVKARR [SEQ ID NO: 37], the “Inhibition of TNF-α” value [1] was 58.9 ± 0.67%, the IL-8 [2] was 0.269 ng/mL and the “CFU/ml (blood)” value (S. aureus) was 9.65 ± 0.41 × 10^2 CFU/ml. For the same sequence, the “MIC, S. aureus” value [3] was “>”.
For RRAWWKAWWARRK [SEQ ID NO: 20], the “Inhibition of TNF-α” value [1] was 66.1 ± 0.78%, the IL-8 [2] was 0.151 ng/mL and the “CFU/ml (blood)” value (S. aureus) was 3.41 ± 1.6 × 10^3 CFU/ml.
With RRDCRRVMVRGIDIKAK [SEQ ID NO: 36] the “Inhibition of TNF-α” value [1] was 63 ± 0.24%, the IL-8 [2] was 0.166 ng/mL and the “MIC, S. aureus” value [3] was “>”.
With RAAFKWAWAWWRRK [SEQ ID NO: 23] the “Inhibition of TNF-α” value [1] was 83.6 ± 0.32%, the IL-8 [2] was 0.284 ng/mL and the “CFU/ml (blood)” value (S. aureus) was 4.39 ± 2.0 × 10^3 CFU/ml.
For NLPDLKKPRVPATS [SEQ ID NO: 17], the “Inhibition of TNF-α” value [1] was 28.3 ± 3.71%, the IL-8 [2] was 0.15 ng/mL and the “CFU/ml (blood)” value (S. aureus) was 9.6 ± 0.41 × 10^2 CFU/ml. The “MIC, S. aureus” value [3] was “>”.
